PubChem BioAssay AID330 (DTP/NCI, 2004)
The list is a part of this screen's results and no random one: it gathers tests that were run many times, whatever their T/C, doses with no T/C, and many T/C values between a quarter and a half above the control. Other doses and runs of a compound stand elsewhere. T/C: endpoint of the treated group in % of that of the vehicle group. Some entries give survivors of the animals treated and no T/C: the source holds a T/C of zero for them, seemingly a mark for toxic or unscored doses. Some survivor counts are full or nearly so, which does not show that the dose was tolerated: survival well below the control is almost never listed, so the zero probably covers shortened survival too. Counts of survivors are from the toxicity check (mostly the fifth day) where no day follows; animals may have died later. Schedule codes are those of the source, read here as Q, the interval in days (D) or hours (H), X, the number of doses. Some entries were tested several times; the results are listed from low to high. Brackets with × stand for listed records that agree. Some molecules as drawn cover several salts, stereoisomers or complexes of the source; a dose is that of the sample tested. For survival time, this PubChem deposit counts one and a half times the control or more as active, and values a quarter to a half above the control carry no call in these data; other NCI protocols may use other cut-offs. Some T/C values carry the count of animals alive at the toxicity check (mostly the fifth day); without a count, all were alive then.

Tested on: P388 leukemia ip, CD2F1 mice, survival T/C
Assay: NCI In Vivo Anticancer Drug Screen. Data for tumor model P388 Leukemia (intraperitoneal) in CD2F1 (CDF1) mice
Details: T/C endpoint: median survival time, higher T/C = longer survival
[1] = dose: 400.0 mg/kg/injection, schedule: Q04DX002 (ip), vehicle: Klucel (hydroxypropylcellulose) (HPC)
[2] = dose: 200.0 mg/kg/injection, schedule: Q01DX009 (ip), vehicle: saline
[3] = dose: 100.0 mg/kg/injection, schedule: Q01DX009 (ip), vehicle: saline with Tween-80
[4] = dose: 200.0 mg/kg/injection, schedule: Q01DX009 (ip), vehicle: saline with Tween-80
[5] = dose: 400.0 mg/kg/injection, schedule: Q01DX009 (ip), vehicle: saline with Tween-80
[6] = dose: 200.0 mg/kg/injection, schedule: Q01DX005 (ip), vehicle: Klucel (hydroxypropylcellulose) (HPC)
[7] = dose: 200.0 mg/kg/injection, schedule: Q01DX005 (ip), vehicle: saline with Tween-80
[8] = dose: 50.0 mg/kg/injection, schedule: Q01DX009 (ip), vehicle: saline
[9] = dose: 100.0 mg/kg/injection, schedule: Q01DX009 (ip), vehicle: saline

For `NC(=O)c1ncn2c(=O)n(CCCl)nnc12`, which T/C (dose: 6.7 mg/kg/injection, schedule: Q01DX005 (ip), vehicle: Klucel (hydroxypropylcellulose) (HPC), evaluated on day 30) is on record?
Its T/C is 223 % of control.

And the T/C (dose: 6.7 mg/kg/injection, schedule: Q01DX005 (ip), vehicle: Klucel (hydroxypropylcellulose) (HPC), evaluated on day 60)?
Its T/C is 218, 260, 294 % of control.

What about the T/C (dose: 10.0 mg/kg/injection, schedule: Q01DX005 (ip), vehicle: Klucel (hydroxypropylcellulose) (HPC), evaluated on day 30) of the same compound?
The T/C was 294 % of control.

What about the T/C (dose: 10.0 mg/kg/injection, schedule: Q01DX005 (ip), vehicle: Klucel (hydroxypropylcellulose) (HPC), evaluated on day 60) of the same compound?
Its T/C is 280, 588, 594 % of control.

And the T/C (dose: 15.0 mg/kg/injection, schedule: Q01DX005 (ip), vehicle: Klucel (hydroxypropylcellulose) (HPC), evaluated on day 30)?
The T/C was 294 % of control.

And the T/C (dose: 15.0 mg/kg/injection, schedule: Q01DX005 (ip), vehicle: Klucel (hydroxypropylcellulose) (HPC), evaluated on day 60)?
Its T/C is 220, 582, 588, 594 % of control.

What about the T/C (dose: 22.0 mg/kg/injection, schedule: Q01DX005 (ip), vehicle: Klucel (hydroxypropylcellulose) (HPC), evaluated on day 30) of the same compound?
Its T/C is 294 % of control.

And the T/C (dose: 22.0 mg/kg/injection, schedule: Q01DX005 (ip), vehicle: Klucel (hydroxypropylcellulose) (HPC), evaluated on day 60)?
The T/C was 230, 582, 588, 594 % of control.

And the T/C (dose: 33.0 mg/kg/injection, schedule: Q01DX005 (ip), vehicle: Klucel (hydroxypropylcellulose) (HPC), evaluated on day 30)?
Its T/C is 294 % of control.

And the T/C (dose: 33.0 mg/kg/injection, schedule: Q01DX005 (ip), vehicle: Klucel (hydroxypropylcellulose) (HPC), evaluated on day 60)?
Its T/C is 121, 208, 441, 582 % of control.

What about the survivor count (dose: 50.0 mg/kg/injection, schedule: Q01DX005 (ip), vehicle: Klucel (hydroxypropylcellulose) (HPC)) of the same compound?
Its survivor count is 9 of 10.

And the T/C (dose: 50.0 mg/kg/injection, schedule: Q01DX005 (ip), vehicle: saline, evaluated on day 30)?
The T/C was 118, 138, 153 % of control.

And the T/C (dose: 50.0 mg/kg/injection, schedule: Q01DX005 (ip), vehicle: saline, evaluated on day 60)?
The T/C was 114 % of control [9 of 10 alive].

What about the survivor count (dose: 100.0 mg/kg/injection, schedule: Q01DX005 (ip), vehicle: saline) of the same compound?
Its survivor count is 6 of 6.

With `Cc1ccc(N=Nc2c(C)nn(C(=S)S)c2C)cc1` as the compound, how does the survivor count [1] read?
Its survivor count is 1 of 5.

`COc1cc2c(cc1OC)C(CN)C2` (configuration not stated) was tested. Which survivor count [2] did it give?
Its survivor count is 2 of 6.

`CCOC(=O)/C=C(\C)NC(C)=NC(C)(C)C` was tested. Which survivor count [2] did it give?
Its survivor count is 0 of 6.

With `COc1cc2cccc(N)c2cc1OC` as the compound, how does the survivor count (dose: 100.0 mg/kg/injection, schedule: Q01DX009 (ip), vehicle: water) read?
The survivor count was 1 of 6.

How did the survivor count (dose: 200.0 mg/kg/injection, schedule: Q04DX003 (ip), vehicle: saline with Tween-80) turn out when `NC(=S)N/N=C\c1ccc(/C=N/NC(N)=S)cc1` was run?
The survivor count was 6 of 6.

For `Cc1c(C)c(C[P+](CCP(c2ccccc2)c2ccccc2)(c2ccccc2)c2ccccc2)c(C)c(C)c1C[P+](CCP(c1ccccc1)c1ccccc1)(c1ccccc1)c1ccccc1`, which survivor count (dose: 25.0 mg/kg/injection, schedule: Q04DX002 (ip), vehicle: saline with Tween-80) is on record?
Its survivor count is 4 of 6.

And the survivor count (dose: 50.0 mg/kg/injection, schedule: Q04DX002 (ip), vehicle: saline with Tween-80)?
The survivor count was 2 of 6.

For `CC(C)OC(=O)C1(N)CCCC1`, which survivor count [3] is on record?
Its survivor count is 3 of 6.

What about the survivor count [4] of the same compound?
The survivor count was 6 of 6.

And the survivor count [2]?
Its survivor count is 5 of 6.

What about the survivor count [5] of the same compound?
The survivor count was 5 of 6.

And the T/C (dose: 400.0 mg/kg/injection, schedule: Q04DX003 (ip), vehicle: saline)?
Its T/C is 127 % of control.

Which T/C (dose: 100.0 mg/kg/injection, schedule: Q01DX005 (ip), vehicle: distilled water + Tween-80) does the source give for `Nc1cc(Cl)c2[nH]cnc2n1` here?
Its T/C is 135 % of control.

With `CC1OCN2C(C)CCCC12` (configuration not stated) as the compound, how does the survivor count (dose: 200.0 mg/kg/injection, schedule: Q01DX005 (ip), vehicle: saline) read?
The survivor count was 1 of 6.

For `CCCC(NC(=O)OCc1ccccc1)C(=O)NC(C)C(=O)O` (configuration not stated), which survivor count [6] is on record?
Its survivor count is 5 of 5.

For `Cc1c2c(cc3c4ccccc4n(C)c13)C(=O)NC2=O`, which survivor count [7] is on record?
Its survivor count is 5 of 5.

For `CN1CC=Nc2c1nc(N)[nH]c2=O`, which survivor count [4] is on record?
Its survivor count is 6 of 6.

`CC(=O)NC1C(S[As](C)C)OC(COC(C)=O)C(OC(C)=O)C1OC(C)=O` (configuration not stated) was tested. Which T/C [3] did it give?
Its T/C is 125 % of control [5 of 6 alive].

How did the survivor count [8] turn out when `CCCCn1ccnc1C` was run?
Its survivor count is 3 of 6.

And the survivor count [9]?
Its survivor count is 0 of 6.

And the survivor count [2]?
Its survivor count is 0 of 6.

For `CN(C)/N=N/c1nc[nH]c1C(N)=O`, which T/C (dose: 25.0 mg/kg/injection, schedule: Q01DX009 (ip), vehicle: distilled water + Tween-80, evaluated on day 20) is on record?
Its T/C is 113 % of control.

What about the T/C (dose: 25.0 mg/kg/injection, schedule: Q01DX009 (ip), vehicle: distilled water + Tween-80, evaluated on day 30) of the same compound?
Its T/C is 102, 110, 111, 112, 113 (2×), 116 (2×), 116 [5 of 6 alive], 124, 127 % of control.

And the T/C (dose: 25.0 mg/kg/injection, schedule: Q01DX009 (ip), vehicle: saline with Tween-80)?
Its T/C is 129 % of control.

What about the T/C (dose: 37.5 mg/kg/injection, schedule: Q01DX005 (ip), vehicle: distilled water + Tween-80) of the same compound?
Its T/C is 130 % of control.

What about the T/C (dose: 50.0 mg/kg/injection, schedule: Q01DX009 (ip), vehicle: distilled water + Tween-80, evaluated on day 20) of the same compound?
The T/C was 109 % of control.

And the T/C (dose: 50.0 mg/kg/injection, schedule: Q01DX009 (ip), vehicle: distilled water + Tween-80, evaluated on day 30)?
Its T/C is 116 (3×), 117, 124, 125, 129, 133, 138, 150, 153 % of control.

And the T/C (dose: 75.0 mg/kg/injection, schedule: Q01DX005 (ip), vehicle: distilled water + Tween-80)?
Its T/C is 140 % of control.

And the T/C (dose: 100.0 mg/kg/injection, schedule: Q01DX005 (ip), vehicle: saline with Tween-80)?
Its T/C is 130 % of control.

What about the T/C (dose: 100.0 mg/kg/injection, schedule: Q01DX009 (ip), vehicle: distilled water + Tween-80, evaluated on day 20) of the same compound?
The T/C was 134 % of control.

What about the T/C (dose: 100.0 mg/kg/injection, schedule: Q01DX009 (ip), vehicle: distilled water + Tween-80, evaluated on day 30) of the same compound?
Its T/C is 106, 133, 135, 145, 146 (2×), 150, 161, 162, 163, 190 % of control.

And the T/C [3]?
Its T/C is 126 % of control.

What about the T/C [7] of the same compound?
Its T/C is 142 % of control (2×).

And the T/C (dose: 200.0 mg/kg/injection, schedule: Q01DX009 (ip), vehicle: distilled water + Tween-80, evaluated on day 20)?
Its T/C is 137 % of control.

And the T/C (dose: 200.0 mg/kg/injection, schedule: Q01DX009 (ip), vehicle: distilled water + Tween-80, evaluated on day 30)?
Its T/C is 116, 117, 118, 124, 125, 138, 141, 148 [5 of 6 alive], 153, 168, 187 % of control.

What about the T/C [4] of the same compound?
The T/C was 135 % of control.

And the T/C (dose: 400.0 mg/kg/injection, schedule: Q01DX005 (ip), vehicle: Klucel (hydroxypropylcellulose) (HPC))?
Its T/C is 125 % of control.

What about the survivor count (dose: 400.0 mg/kg/injection, schedule: Q01DX005 (ip), vehicle: saline with Tween-80) of the same compound?
Its survivor count is 6 of 6.

What about the T/C (dose: 400.0 mg/kg/injection, schedule: Q01DX009 (ip), vehicle: distilled water + Tween-80, evaluated on day 20) of the same compound?
Its T/C is 189 % of control.

And the T/C (dose: 400.0 mg/kg/injection, schedule: Q01DX009 (ip), vehicle: distilled water + Tween-80, evaluated on day 30)?
The T/C was 97 % of control [5 of 6 alive].

What about the survivor count (dose: 400.0 mg/kg/injection, schedule: Q01DX009 (ip), vehicle: distilled water + Tween-80) of the same compound?
Its survivor count is 4 of 6 (2×), 5 of 6, 6 of 6 (2×).

And the survivor count [5]?
Its survivor count is 0 of 6.

With `COc1ccc2c3c([nH]c2c1[N+](=O)[O-])C(C)NCC3` (configuration not stated) as the compound, how does the survivor count (dose: 100.0 mg/kg/injection, schedule: Q01DX005 (ip), vehicle: Klucel (hydroxypropylcellulose) (HPC)) read?
Its survivor count is 0 of 6.

What about the survivor count [6] of the same compound?
Its survivor count is 0 of 6.

How did the survivor count [4] turn out when `CCCCN(CCCC)CCCOC(=O)c1ccc2oc3ccc(C(=O)OCCCN(CCCC)CCCC)cc3c2c1` was run?
Its survivor count is 2 of 6.

Which survivor count (dose: 20.0 mg/kg/injection, schedule: Q04DX002 (ip), vehicle: saline) does the source give for `O=C(O)CC(=O)O.[Cu+2].[NH-]C1CCCC2CCC[N-]C12` (configuration not stated) here?
Its survivor count is 1 of 6.

With `CSCCC([NH-])C(=O)O.CSCCC([NH-])C(=O)O.[Ni+2]` (configuration not stated) as the compound, how does the survivor count (dose: 6.25 mg/kg/injection, schedule: Q01DX009 (ip), vehicle: saline) read?
The survivor count was 6 of 6.

And the survivor count (dose: 25.0 mg/kg/injection, schedule: Q01DX009 (ip), vehicle: saline)?
The survivor count was 2 of 6.

What about the survivor count [8] of the same compound?
Its survivor count is 5 of 6.

What about the survivor count [9] of the same compound?
The survivor count was 0 of 6.

What about the survivor count [2] of the same compound?
Its survivor count is 0 of 6.

How did the T/C (dose: 100.0 mg/kg/injection, schedule: Q04DX002 (ip), vehicle: Klucel (hydroxypropylcellulose) (HPC)) turn out when `CC(C)(C)N1COCO[C@H]2CCC[C@@H]21` was run?
Its T/C is 125 % of control.

What about the survivor count [1] of the same compound?
The survivor count was 0 of 6.
